{"source": "the supplement of paper PMC10727501", "note": "The list shows a part of the results. Single values are uncertain here, since repeats match poorly.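 Free-swimming zebrafish larvae were scored for O-bend response probability to dark flashes (naive: first five; training: remaining flashes of four 60-flash blocks; test: later 60-flash block) and for turning toward alternating leftward/rightward LED motion (OMR). Six treated larvae were compared with sixty 0.1% DMSO controls; |SSMD|≥2 defined a hit.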"}
{"system": "Danio rerio larvae (5 dpf, TLF)", "experiment": "Prob-Naive (SSMD vs DMSO vehicle); higher = higher than vehicle (e.g. higher dark-flash O-bend response probability, or better optomotor performance)", "conditions": "10 µM; pre-incubation: 30-90 min"}
{"molecule": "CCCC(=O)Nc1ccc(OCC(O)CNC(C)C)c(C(C)=O)c1.Cl", "note": "(stereo not given) [Acebutolol HCl]", "Prob-Naive": -0.245}
{"molecule": "CCCCCCCCCCCCc1ccc(S(=O)(=O)Nc2nncs2)cc1", "Prob-Naive": 0.173}
{"molecule": "C=CCc1cccc(/C=N/NC(=O)CN2CCN(Cc3ccccc3)CC2)c1O", "Prob-Naive": -0.273}
{"molecule": "Cc1nnc(C(C)C)n1C1CC2CCC(C1)N2CC[C@H](NC(=O)C1CCC(F)(F)CC1)c1ccccc1", "note": "(stereo not given in full) [Maraviroc]", "Prob-Naive": 0.0184}
{"molecule": "CC1(C)S[C@@H]2[C@H](NC(=O)C(C(=O)[O-])c3ccccc3)C(=O)N2[C@H]1C(=O)[O-].[Na+].[Na+]", "note": "(stereo not given in full) [Carbenicillin disodium]", "Prob-Naive": 0}
{"molecule": "O=c1[nH]cnc2c1ncn2[C@H]1CC[C@@H](CO)O1", "note": "[Didanosine]", "Prob-Naive": -0.0542}
{"molecule": "CO[C@H]1[C@@H](O[C@H]2O[C@@H](C)[C@H](O[C@@H]3C[C@](C)(O)[C@H](O)[C@@H](C)O3)[C@@H](N(C)C)[C@@H]2O)[C@@H](CC=O)C[C@@H](C)[C@@H](O[C@H]2CC[C@H](N(C)C)[C@H](C)O2)/C=C/C=C/C[C@@H](C)OC(=O)C[C@H]1O", "note": "[Spiramycin]", "Prob-Naive": -0.265}
{"molecule": "O=C(CCCCCCNC(=O)c1cnc(N(c2ccccc2)c2ccccc2)nc1)NO", "note": "[Rocilinostat (ACY-1215)]", "Prob-Naive": -0.0813}
{"molecule": "Cc1oncc1C(=O)Nc1ccc(C(F)(F)F)cc1", "note": "[Leflunomide]", "Prob-Naive": -0.361}
{"molecule": "O=C(O)c1cc(-c2ccccc2)nc2ccccc12", "note": "[Cinchophen]", "Prob-Naive": -0.105}
{"molecule": "O=C(CCCc1ccccc1)[O][Na]", "note": "[Sodium Phenylbutyrate]", "Prob-Naive": 0}
{"molecule": "CCOC(=O)c1ccc(N2NC(=O)/C(=C/c3ccc([N+](=O)[O-])o3)C2=O)cc1", "Prob-Naive": -0.715}
{"molecule": "CN(C)CCCN1c2ccccc2CCc2ccccc21.Cl", "note": "[Imipramine HCl]", "Prob-Naive": 0.163}
{"molecule": "C=CC(=O)N1CCC[C@@H](n2nc(-c3ccc(Oc4ccccc4)cc3)c3c(N)ncnc32)C1", "Prob-Naive": -0.397}
{"molecule": "C=CCN1CCCC1CNC(=O)c1cc2nn[nH]c2cc1OC.Cl", "note": "(stereo not given) [Alizapride HCl]", "Prob-Naive": 0.312}
{"molecule": "COCC[n+]1c2c(n(Cc3cnccn3)c1C)C(=O)c1ccccc1C2=O", "note": "[YM155 (Sepantronium Bromide)]", "Prob-Naive": 0.515}
{"molecule": "CC[C@@H]1C(=O)N(C)c2cnc(Nc3ccc(C(=O)NC4CCN(C)CC4)cc3OC)nc2N1C1CCCC1", "Prob-Naive": -0.463}
{"molecule": "Cl.Cl.Fc1cc(-c2cccc3ncc(-c4cnn(C5CCNCC5)c4)nc23)cc(F)c1CN1CCOCC1", "Prob-Naive": 0.102}
{"molecule": "CC[C@@H](C)Nc1cc(C(=O)NC2CC3CCC(C2)N3c2ccc(C(=O)C3CC3)cn2)c(C)cc1C(N)=O", "note": "(stereo not given in full)", "Prob-Naive": -0.261}
{"molecule": "Cc1cc(C)c2c(c1)[C@@H](N(Cc1cc(C(F)(F)F)cc(C(F)(F)F)c1)c1nnn(C)n1)CCCN2C[C@H]1CC[C@H](C(=O)O)CC1", "Prob-Naive": 0.302}
{"molecule": "CN(c1ncccc1CNc1nc(Nc2ccc3c(c2)CC(=O)N3)ncc1C(F)(F)F)S(C)(=O)=O", "Prob-Naive": 0.456}
{"molecule": "Cc1nc(C(=O)NCC(=O)O)c(O)c2ccc(Oc3ccccc3)cc12", "Prob-Naive": 0.489}
{"molecule": "NCC(=O)Nc1ccc(-n2nc(C(F)(F)F)cc2-c2ccc3c(ccc4ccccc43)c2)cc1", "Prob-Naive": -1.49}
{"molecule": "C[C@@H]1[C@H](NC(=O)/C(=N\\OC(C)(C)C(=O)O)c2csc(N)n2)C(=O)N1S(=O)(=O)O", "note": "[Aztreonam]", "Prob-Naive": 0.549}
{"molecule": "CN1c2ccccc2C(=O)N2CCc3c([nH]c4ccccc34)C21", "note": "(stereo not given) [Evodiamine]", "Prob-Naive": -0.311}
{"molecule": "COc1ccc(-n2nc(C(N)=O)c3c2C(=O)N(c2ccc(N4CCCCC4=O)cc2)CC3)cc1", "note": "[Apixaban]", "Prob-Naive": -0.439}
{"molecule": "O=c1c(-c2ccc(O)cc2)coc2cc(O)ccc12", "note": "[Daidzein]", "Prob-Naive": -0.0545}
{"molecule": "CN[C@@H](C)C(=O)N[C@H](C(=O)N1CCC[C@H]1C(=O)Nc1snnc1-c1ccccc1)C1CCCCC1", "Prob-Naive": 0.0243}
{"molecule": "CC1(C)O[C@@H]2C[C@H]3[C@@H]4CCC5=CC(=O)CC[C@]5(C)[C@]4(F)[C@H](O)C[C@]3(C)[C@@]2(C(=O)CCl)O1", "note": "[Halcinonide]", "Prob-Naive": 0.351}
{"molecule": "Cc1nc(Nc2ncc(C(=O)Nc3c(C)cccc3Cl)s2)cc(N2CCN(CCO)CC2)n1", "note": "[Dasatinib]", "Prob-Naive": 0.221}
{"molecule": "COc1cccc2c1C(=O)c1c(O)c3c(c(O)c1C2=O)C[C@@](O)(C(=O)CO)C[C@H]3O[C@H]1C[C@H](N)[C@@H](O)[C@H](C)O1.Cl", "note": "[Epirubicin HCl]", "Prob-Naive": -0.295}
{"molecule": "CC1(C)O[C@@H]2[C@@H](CO[C@@]3(COS(N)(=O)=O)OC(C)(C)O[C@@H]23)O1", "note": "[Topiramate]", "Prob-Naive": -0.357}
{"molecule": "CCN(CC)CC(=O)Nc1c(C)cccc1C", "note": "[Lidocaine]", "Prob-Naive": 0.182}
{"molecule": "O=C(CS(=O)Cc1ccco1)NC/C=C\\COc1cc(CN2CCCCC2)ccn1", "note": "(stereo not given) [Lafutidine]", "Prob-Naive": -0.5}
{"molecule": "CC(C)(Oc1ccc(CCNC(=O)c2ccc(Cl)cc2)cc1)C(=O)O", "note": "[Bezafibrate]", "Prob-Naive": -0.269}
{"molecule": "Brc1c(NC2=NCCN2)ccc2nccnc12.O=C(O)[C@@H](O)[C@@H](O)C(=O)O", "note": "[Brimonidine Tartrate]", "Prob-Naive": -0.314}
{"molecule": "CCC(CC)n1ccc2c(C(=O)NCc3c(C)cc(C)[nH]c3=O)cc(C#N)cc21", "Prob-Naive": -0.0813}
{"molecule": "CC(=O)Oc1cc(C(F)(F)F)ccc1C(=O)O", "note": "[Triflusal]", "Prob-Naive": -0.187}
{"molecule": "C[C@H]1CCO[C@H]2Cn3cc(C(=O)NCc4ccc(F)cc4F)c(=O)c(O)c3C(=O)N21", "Prob-Naive": -0.0101}
{"molecule": "NCC[C@H](O)C(=O)N[C@@H]1C[C@H](N)[C@H](O[C@H]2O[C@H](CN)[C@@H](O)[C@@H](O)[C@H]2O)[C@H](O)[C@H]1O[C@H]1O[C@H](CO)[C@@H](O)[C@@H](N)[C@H]1O.O=S(=O)(O)O.O=S(=O)(O)O", "note": "[Amikacin sulfate]", "Prob-Naive": 0.421}
